This note sets out measurements from publication PMC5484543.

The target of one assay is T1, Erlin2*-FLAG (human) (UniProt O94905).
T1 sequence: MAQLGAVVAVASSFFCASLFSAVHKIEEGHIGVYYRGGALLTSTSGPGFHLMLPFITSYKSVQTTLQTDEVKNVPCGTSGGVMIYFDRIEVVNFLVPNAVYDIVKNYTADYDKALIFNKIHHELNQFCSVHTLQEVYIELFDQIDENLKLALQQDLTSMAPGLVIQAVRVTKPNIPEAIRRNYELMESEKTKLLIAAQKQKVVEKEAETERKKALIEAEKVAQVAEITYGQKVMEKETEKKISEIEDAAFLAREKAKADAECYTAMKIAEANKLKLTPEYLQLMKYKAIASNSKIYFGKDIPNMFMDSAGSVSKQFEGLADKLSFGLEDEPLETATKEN
As to the kind of experiment: co-IP.

A further assay concerns the target T2, Erlin1*-FLAG (human) (UniProt O75477).
T2 sequence: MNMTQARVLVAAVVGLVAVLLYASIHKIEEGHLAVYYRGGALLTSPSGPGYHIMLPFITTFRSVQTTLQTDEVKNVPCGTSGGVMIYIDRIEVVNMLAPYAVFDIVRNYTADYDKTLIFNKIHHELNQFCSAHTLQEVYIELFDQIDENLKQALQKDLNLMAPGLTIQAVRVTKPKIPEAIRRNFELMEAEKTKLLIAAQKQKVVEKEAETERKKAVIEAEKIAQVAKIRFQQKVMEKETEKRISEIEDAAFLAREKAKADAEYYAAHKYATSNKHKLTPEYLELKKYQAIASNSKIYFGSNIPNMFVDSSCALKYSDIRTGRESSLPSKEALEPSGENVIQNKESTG
Briefly: co-IP.

No constants are given. Whether binding was seen depends on the method and setting. Binding seen in cells or lysates may run through a third protein. Binding calls can cover weak binding; strength is not graded here. Sequences can lack the tags named with a protein.

Turning to TMUB1 (simian (endogenous in CV-1)), the binding entry in the assay with Erlin2*-FLAG (human) was “binds”.

On to “B12 (endogenous, CV-1) (simian (endogenous in CV-1))”, for which the binding result with Erlin2*-FLAG (human) and with Erlin1*-FLAG (human) was “binds” each time.
